Results are given in words; binding and its absence hold for the method and conditions named. In cells and extracts the contact can be indirect. A result given as binding can be weak or reduced; the word gives no strength. For part of these data: Tags and fused reporters may be left off the sequences shown.
Assays:
Myc-TIPE2 = target: T1, Myc-TIPE2 (UniProt Q6P589); test: co-IP; 293T cells transiently co-transfected with the two tagged proteins; IP lysis buffer with protease and phosphatase inhibitors; about 1 mg protein with primary antibody or isotype IgG at 4 °C overnight; protein A-agarose beads; five washes in TBST; Western blot
T1 sequence: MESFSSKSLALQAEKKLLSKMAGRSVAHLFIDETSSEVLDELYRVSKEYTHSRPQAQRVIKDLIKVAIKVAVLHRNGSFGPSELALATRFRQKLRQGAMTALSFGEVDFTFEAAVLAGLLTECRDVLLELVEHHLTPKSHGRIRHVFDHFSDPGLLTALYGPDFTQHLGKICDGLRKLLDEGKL

By UniProt entry, the sequences of proteins in these tests, tags left out. Where a name states a change or a piece, a line headed by the entry shows the natural chain unless it says otherwise.
UniProt P27958: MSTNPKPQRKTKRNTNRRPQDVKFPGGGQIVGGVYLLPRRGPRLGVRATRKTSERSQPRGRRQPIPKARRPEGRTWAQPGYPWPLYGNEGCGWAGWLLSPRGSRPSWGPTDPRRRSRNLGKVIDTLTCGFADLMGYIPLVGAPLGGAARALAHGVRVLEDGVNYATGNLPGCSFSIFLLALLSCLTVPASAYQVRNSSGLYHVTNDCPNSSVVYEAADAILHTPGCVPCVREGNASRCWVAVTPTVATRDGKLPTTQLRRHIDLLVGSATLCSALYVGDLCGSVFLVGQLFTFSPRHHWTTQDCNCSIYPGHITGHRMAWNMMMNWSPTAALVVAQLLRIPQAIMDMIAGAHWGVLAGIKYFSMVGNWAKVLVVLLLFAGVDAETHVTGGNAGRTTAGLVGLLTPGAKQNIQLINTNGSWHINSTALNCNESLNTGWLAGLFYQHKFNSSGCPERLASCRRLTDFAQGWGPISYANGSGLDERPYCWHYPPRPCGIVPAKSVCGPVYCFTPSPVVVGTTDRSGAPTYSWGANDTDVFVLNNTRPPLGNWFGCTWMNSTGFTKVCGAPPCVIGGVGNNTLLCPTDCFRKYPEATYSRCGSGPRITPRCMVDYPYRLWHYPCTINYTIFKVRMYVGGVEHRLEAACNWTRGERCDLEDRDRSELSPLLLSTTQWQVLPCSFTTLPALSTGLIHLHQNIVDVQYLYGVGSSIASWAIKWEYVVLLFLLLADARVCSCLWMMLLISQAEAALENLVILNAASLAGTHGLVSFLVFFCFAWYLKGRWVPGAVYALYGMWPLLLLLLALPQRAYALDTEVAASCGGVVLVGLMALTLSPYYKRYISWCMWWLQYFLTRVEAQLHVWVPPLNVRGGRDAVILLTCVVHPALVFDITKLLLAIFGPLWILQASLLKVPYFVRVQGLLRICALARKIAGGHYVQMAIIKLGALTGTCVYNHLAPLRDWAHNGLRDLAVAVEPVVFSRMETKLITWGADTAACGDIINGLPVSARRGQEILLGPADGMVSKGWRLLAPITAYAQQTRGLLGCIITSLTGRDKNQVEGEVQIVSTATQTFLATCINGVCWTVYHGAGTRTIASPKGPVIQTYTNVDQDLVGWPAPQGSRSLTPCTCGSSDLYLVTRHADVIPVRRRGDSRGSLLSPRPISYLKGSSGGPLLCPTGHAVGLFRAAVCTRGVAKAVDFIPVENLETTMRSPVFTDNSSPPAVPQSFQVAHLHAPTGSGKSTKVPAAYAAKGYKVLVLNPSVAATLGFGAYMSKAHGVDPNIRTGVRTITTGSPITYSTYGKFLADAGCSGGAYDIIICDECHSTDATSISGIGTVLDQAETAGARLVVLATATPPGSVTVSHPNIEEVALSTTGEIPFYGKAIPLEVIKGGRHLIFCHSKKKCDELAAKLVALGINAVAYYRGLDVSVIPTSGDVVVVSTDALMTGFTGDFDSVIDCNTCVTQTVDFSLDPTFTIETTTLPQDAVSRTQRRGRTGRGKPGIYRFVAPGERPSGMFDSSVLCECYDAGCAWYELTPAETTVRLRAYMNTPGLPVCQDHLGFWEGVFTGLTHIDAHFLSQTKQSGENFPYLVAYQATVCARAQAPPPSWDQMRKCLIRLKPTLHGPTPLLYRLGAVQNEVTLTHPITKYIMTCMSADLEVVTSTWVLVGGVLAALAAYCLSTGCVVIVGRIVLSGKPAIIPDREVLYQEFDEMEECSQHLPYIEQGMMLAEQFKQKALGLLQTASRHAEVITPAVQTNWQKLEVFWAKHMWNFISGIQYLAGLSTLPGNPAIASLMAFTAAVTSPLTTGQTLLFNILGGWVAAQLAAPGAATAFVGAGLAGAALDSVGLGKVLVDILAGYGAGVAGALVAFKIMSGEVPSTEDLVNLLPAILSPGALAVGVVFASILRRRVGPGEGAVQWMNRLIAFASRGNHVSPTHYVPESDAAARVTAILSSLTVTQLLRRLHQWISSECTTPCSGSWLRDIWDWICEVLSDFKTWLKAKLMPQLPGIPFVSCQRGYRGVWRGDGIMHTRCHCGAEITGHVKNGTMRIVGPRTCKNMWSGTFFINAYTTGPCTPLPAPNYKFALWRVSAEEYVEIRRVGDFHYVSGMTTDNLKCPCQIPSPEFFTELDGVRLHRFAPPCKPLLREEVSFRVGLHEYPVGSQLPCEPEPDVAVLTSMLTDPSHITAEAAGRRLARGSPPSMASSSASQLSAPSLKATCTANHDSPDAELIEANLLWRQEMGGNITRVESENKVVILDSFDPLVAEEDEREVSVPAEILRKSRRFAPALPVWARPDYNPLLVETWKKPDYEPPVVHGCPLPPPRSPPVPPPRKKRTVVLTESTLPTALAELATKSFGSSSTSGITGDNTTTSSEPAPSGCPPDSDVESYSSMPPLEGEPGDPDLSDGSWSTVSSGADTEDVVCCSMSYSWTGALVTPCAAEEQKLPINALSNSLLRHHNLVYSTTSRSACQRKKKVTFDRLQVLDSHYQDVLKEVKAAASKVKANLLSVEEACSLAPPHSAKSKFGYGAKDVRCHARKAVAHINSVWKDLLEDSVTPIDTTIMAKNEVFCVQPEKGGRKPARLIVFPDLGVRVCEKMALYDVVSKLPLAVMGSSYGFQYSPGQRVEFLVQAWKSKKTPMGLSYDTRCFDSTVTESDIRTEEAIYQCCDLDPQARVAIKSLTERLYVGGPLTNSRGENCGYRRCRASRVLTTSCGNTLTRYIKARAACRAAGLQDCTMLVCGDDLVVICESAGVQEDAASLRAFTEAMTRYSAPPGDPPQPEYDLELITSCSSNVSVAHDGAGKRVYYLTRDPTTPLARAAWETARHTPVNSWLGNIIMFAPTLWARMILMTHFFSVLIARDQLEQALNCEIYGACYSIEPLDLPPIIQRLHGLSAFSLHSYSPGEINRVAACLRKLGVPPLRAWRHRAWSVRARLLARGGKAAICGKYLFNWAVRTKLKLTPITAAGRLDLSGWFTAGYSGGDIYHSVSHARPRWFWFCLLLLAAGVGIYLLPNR

FLAG-TIPE2 = target: T2, FLAG-TIPE2 (UniProt Q6P589); test: as above
T2 sequence: T1 sequence

[1] = target: T3, TIPE2 (stably expressed in Huh7 cells) (UniProt Q6P589); test: co-IP; Huh7 TIPE2 stable cells in a 10-cm dish transfected with 6 μg myc-NS5A plasmids; co-IP 48 h later 'as above'
T3 sequence: T1 sequence

Substance: FLAG-NS5A (from UniProt P27958)
- binding (Myc-TIPE2): binds

Substance: myc-NS5A (in 293T cells) (from UniProt P27958)
- binding (FLAG-TIPE2): binds

Substance: myc-NS5A (in Huh7 TIPE2 stable cells) (from UniProt P27958)
- binding [1]: binds
